No constants are given. Whether binding was seen depends on the method and setting. Some entries that bind do so weakly or less than the wild type.
Tests used:
[1] = target: ARNT (aryl hydrocarbon receptor nuclear translocator, synonym HIF1β), endogenous in murine tubular epithelial cells and mouse kidney (mouse) (UniProt P53762); test: Arnt immunoprecipitation, native gel and immunoblot of total kidney lysates of UUO mice treated with FK506 (FIG. 38)
[2] = target: ARNT (aryl hydrocarbon receptor nuclear translocator, synonym HIF1β), endogenous in murine tubular epithelial cells and mouse kidney (mouse) (UniProt P53762); test: native gel electrophoresis and immunoblot, cultured murine TECs; dimer formation further enhanced upon FK506 (FIG. 35)

Protein sequences, listed by entry. Tags and fused reporters are not part of them. Residues count along the entry.
UniProt P53762, residues 2-791: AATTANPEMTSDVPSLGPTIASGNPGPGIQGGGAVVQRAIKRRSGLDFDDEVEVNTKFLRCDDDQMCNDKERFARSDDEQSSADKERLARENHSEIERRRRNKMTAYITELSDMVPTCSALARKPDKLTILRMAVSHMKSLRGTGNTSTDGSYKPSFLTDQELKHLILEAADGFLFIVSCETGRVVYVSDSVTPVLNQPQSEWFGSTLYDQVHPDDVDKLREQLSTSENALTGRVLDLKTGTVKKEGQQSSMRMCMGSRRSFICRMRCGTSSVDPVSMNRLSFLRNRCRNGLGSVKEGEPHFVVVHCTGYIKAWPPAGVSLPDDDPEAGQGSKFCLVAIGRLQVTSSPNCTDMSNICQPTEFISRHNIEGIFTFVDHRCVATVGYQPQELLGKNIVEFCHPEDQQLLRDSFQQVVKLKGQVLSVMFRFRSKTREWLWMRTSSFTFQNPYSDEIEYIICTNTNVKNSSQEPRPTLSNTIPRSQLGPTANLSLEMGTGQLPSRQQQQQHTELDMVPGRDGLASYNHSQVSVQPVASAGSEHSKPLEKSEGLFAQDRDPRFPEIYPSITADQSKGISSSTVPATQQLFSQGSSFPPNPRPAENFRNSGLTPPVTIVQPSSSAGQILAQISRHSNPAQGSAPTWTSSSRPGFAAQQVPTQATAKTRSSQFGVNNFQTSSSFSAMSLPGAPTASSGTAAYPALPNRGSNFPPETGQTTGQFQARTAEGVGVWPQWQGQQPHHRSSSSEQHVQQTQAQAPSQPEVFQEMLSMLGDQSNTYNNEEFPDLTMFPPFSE

binding [1]: binds
binding [2]: binds
Substance: ARNT (aryl hydrocarbon receptor nuclear translocator, synonym HIF1β), endogenous in murine tubular epithelial cells and mouse kidney (from UniProt P53762 2-791)

Source: patent publication US20210008044A1
